PubChem BioAssay AID1259308 – NCATS, 2017
This is an unselected part of about 59,000 deposited reagents. About 1,510 of all reagents (2.6%) count as active. 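Calls use total luciferase alone and ignore viability, so some active siRNAs may act by altering cell number.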 Unmarked entries are inactive. The numbers tell different reagents against one gene apart.

- Assay: 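Knock-downs that increase output of a recombinant reporter protein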 (primary screen)
- Cell system: human HEK293 embryonic kidney cells stably expressing firefly luciferase (HEK-CMV-Luc2-Hygro)
- Reagent: single siRNA against human genes, 0.8 pmol siRNA per well
- Duration: 72 h
- Measurement: 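Reporter luminescence and viable-cell signal on separate replicate plates, given as percent of non-targeting control and median/MAD z-scores, plus per-cell luciferase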
- Reading the numbers: total luciferase, z-score and total luciferase, % of control: higher = more reporter protein produced; luciferase per cell, z-score: higher = more reporter output per viable cell; viable cells, % of control: higher = more viable cells
- Call rule: 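Active when the median/MAD z-score for overall luciferase is greater than 3; a gene was taken forward for validation with new siRNAs if at least two of its three siRNAs passed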
- Meaning of the calls: active = raised luciferase; inactive = no rise

gene | siRNA no. | total luciferase, z-score | total luciferase, % of control | luciferase per cell, z-score | viable cells, % of control
ZNF597 (GeneID 146434) | 1 | -0.6 | 70 | -0.38 | 86.4
ZNF597 (GeneID 146434) | 2 | -0.733 | 67.3 | -0.931 | 96.1
ZNF597 (GeneID 146434) | 3 | 0.0335 | 82.6 | -0.0562 | 93.6
ALDH1A3 (GeneID 220) | 1 | 0.644 | 94.7 | 1.16 | 78.1
ALDH1A3 (GeneID 220) | 2 | 1.43 | 110 | 1.24 | 89.1
ALDH1A3 (GeneID 220) | 3 | -0.724 | 67.5 | -0.738 | 91.6
XPNPEP2 (GeneID 7512) | 1 | 1.33 | 108 | 0.622 | 103
XPNPEP2 (GeneID 7512) | 2 | 1.13 | 104 | 0.894 | 92.1
XPNPEP2 (GeneID 7512) | 3 | 0.57 | 93.2 | 1.9 | 63.1
OR11L1 (GeneID 391189) | 1 | -0.74 | 67.2 | -0.324 | 81.8
OR11L1 (GeneID 391189) | 2 | -1.4 | 54 | -0.608 | 70.8
OR11L1 (GeneID 391189) | 3 | -0.733 | 67.3 | -0.634 | 88.9
KCNE1 (GeneID 3753) | 1 | -0.75 | 67 | -0.762 | 91.5
KCNE1 (GeneID 3753) | 2 | 1.13 | 104 | 0.885 | 92.3
KCNE1 (GeneID 3753) | 3 | 2.84 | 138 | 2.26 | 85.3
ZC3H14 (GeneID 79882) | 1 | -1.6 | 50.2 | -1.1 | 74.9
ZC3H14 (GeneID 79882) | 2 | 0.122 | 84.3 | -0.372 | 104
ZC3H14 (GeneID 79882) | 3 | -0.786 | 66.3 | -0.224 | 78.5
CNOT10 (GeneID 25904) | 1 | -0.581 | 70.3 | -0.4 | 87.3
CNOT10 (GeneID 25904) | 2 | 0.0278 | 82.4 | 0.0253 | 91.5
CNOT10 (GeneID 25904) | 3 | -2.09 | 40.3 | -2.25 | 81.6
TMEM97 (GeneID 27346) | 1 | -0.644 | 69.1 | -0.574 | 89.8
TMEM97 (GeneID 27346) | 2 | -0.0171 | 81.5 | 1.58 | 60.2
TMEM97 (GeneID 27346) | 3 | -0.533 | 71.3 | -0.513 | 91.2
RSBN1 (GeneID 54665) | 1 | -0.346 | 75 | -0.421 | 93.6
RSBN1 (GeneID 54665) | 2 | 1.33 | 108 | 0.428 | 108
RSBN1 (GeneID 54665) | 3 | 0.89 | 99.6 | 0.303 | 103
PGAP2 (GeneID 27315) | 1 | -0.133 | 79.2 | -0.197 | 93.3
PGAP2 (GeneID 27315) | 2 | 0.35 | 88.8 | 0.554 | 85.8
PGAP2 (GeneID 27315) | 3 | 0.745 | 96.7 | 0.204 | 102
CCNE2 (GeneID 9134) | 1 | -0.14 | 79.1 | -0.617 | 104
CCNE2 (GeneID 9134) | 2 | 0.856 | 98.9 | 0.657 | 93
CCNE2 (GeneID 9134) | 3 | -0.175 | 78.4 | -0.305 | 94.9
TACR3 (GeneID 6870) | 1 | 1.36 | 109 | 0.868 | 96.8
TACR3 (GeneID 6870) | 2 | -0.755 | 66.9 | -0.594 | 87.4
TACR3 (GeneID 6870) | 3 | -0.492 | 72.1 | -0.0336 | 81.3

Reformatted: entries from further up.
ALDH1A3 (GeneID 220) #2 — total luciferase, z-score = 1.43; total luciferase, % of control = 110; luciferase per cell, z-score = 1.24; viable cells, % of control = 89.1
ALDH1A3 (GeneID 220) #3 — total luciferase, z-score = -0.724; total luciferase, % of control = 67.5; luciferase per cell, z-score = -0.738; viable cells, % of control = 91.6
XPNPEP2 (GeneID 7512) #1 — total luciferase, z-score = 1.33; total luciferase, % of control = 108; luciferase per cell, z-score = 0.622; viable cells, % of control = 103
XPNPEP2 (GeneID 7512) #2 — total luciferase, z-score = 1.13; total luciferase, % of control = 104; luciferase per cell, z-score = 0.894; viable cells, % of control = 92.1
XPNPEP2 (GeneID 7512) #3 — total luciferase, z-score = 0.57; total luciferase, % of control = 93.2; luciferase per cell, z-score = 1.9; viable cells, % of control = 63.1
OR11L1 (GeneID 391189) #1 — total luciferase, z-score = -0.74; total luciferase, % of control = 67.2; luciferase per cell, z-score = -0.324; viable cells, % of control = 81.8
OR11L1 (GeneID 391189) #2 — total luciferase, z-score = -1.4; total luciferase, % of control = 54; luciferase per cell, z-score = -0.608; viable cells, % of control = 70.8
OR11L1 (GeneID 391189) #3 — total luciferase, z-score = -0.733; total luciferase, % of control = 67.3; luciferase per cell, z-score = -0.634; viable cells, % of control = 88.9
KCNE1 (GeneID 3753) #1 — total luciferase, z-score = -0.75; total luciferase, % of control = 67; luciferase per cell, z-score = -0.762; viable cells, % of control = 91.5

More entries follow:
gene | siRNA no. | total luciferase, z-score | total luciferase, % of control | luciferase per cell, z-score | viable cells, % of control
TMEM125 (GeneID 128218) | 1 | -0.527 | 71.4 | -0.766 | 97.6
TMEM125 (GeneID 128218) | 2 | 0.658 | 95 | 1.33 | 74.8
TMEM125 (GeneID 128218) | 3 | 1.67 | 115 | 1.17 | 94.5
IL27 (GeneID 246778) | 1 | -0.256 | 76.8 | -0.565 | 99.6
IL27 (GeneID 246778) | 2 | 0.276 | 87.4 | 0.511 | 85.3
IL27 (GeneID 246778) | 3 | -1.4 | 54 | -1.01 | 78.8
EIF4EBP2 (GeneID 1979) | 1 | -0.129 | 79.3 | 0.8 | 71.8
EIF4EBP2 (GeneID 1979) | 2 | 0.951 | 101 | 2.09 | 64.9
EIF4EBP2 (GeneID 1979) | 3 | -0.251 | 76.9 | -0.403 | 95.6
CHRFAM7A (GeneID 89832) | 1 | 0.223 | 86.3 | 0.265 | 90
CHRFAM7A (GeneID 89832) | 2 | -1.38 | 54.4 | -1.48 | 89.7
CHRFAM7A (GeneID 89832) | 3 | -0.0206 | 81.5 | -0.683 | 109
OR13C8 (GeneID 138802) | 1 | 2.45 | 131 | 2.86 | 68.8
OR13C8 (GeneID 138802) | 2 | -0.269 | 76.5 | -0.222 | 90.7
OR13C8 (GeneID 138802) | 3 | 0.587 | 93.6 | -0.663 | 124
FBXO22 (GeneID 26263) | 1 | -1.29 | 56.2 | -1.68 | 97.7
FBXO22 (GeneID 26263) | 2 | 1.24 | 107 | 0.986 | 91.9
FBXO22 (GeneID 26263) | 3 | -0.421 | 73.5 | -0.752 | 100
MMP12 (GeneID 4321) | 1 | -1.61 | 49.9 | -1.21 | 76.7
MMP12 (GeneID 4321) | 2 | 0.432 | 90.5 | 1.29 | 72.1
MMP12 (GeneID 4321) | 3 | 5.4 (active) | 189 | 3.06 | 94.6
